Laboratory results: PubChem BioAssay AID1508597 (Cure First, 2020)
This is a random part of the about 2,100 reagents, under one of the conditions tested. 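Calls flag viability under 80% in either arm, not effects specific to rucaparib; the reference for percent is not stated.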 A reagent listed more than once was tested more than once; the source does not tell the runs apart. The record does not give: the 100% reference.

Aim: 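Genes whose silencing sensitises or protects ovarian cancer cells against rucaparib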 (primary screen)
System: human ovarian carcinoma lines grown from tumours: OCI-P5x (papillary serous) and OCI-C5x (clear cell)
Reagents: siRNA pool against human genes, 1.25 pmol siRNA per well
Timing: 72 h or 96 h, depending on the cell culture
Conditions: rucaparib 20 µM (about IC30) or vehicle, present until read-out
Rucaparib or vehicle: Vehicle
Cell line: OCI-P5x (serous)
Measured: 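ATP luminescence measured at 72 or 96 h according to the culture, then normalised and expressed as percent viability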
Reading the numbers: viability, normalised: higher = more viable cells remaining
Call rule: 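a well counts as a hit if its normalised viability is under 80 percent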
Calls: active = viability under 80%; inactive = viability 80% or more

The first 3 entries, to show the layout:
gene knocked down	PubChem SID	technical replicate	viability, normalised (%)	outcome
MED21	SID405526996	1	76.6	active
MED21	SID405526996	2	71.2	active
MED21	SID405526996	3	106	inactive

The list itself, from the first entry:
gene knocked down	PubChem SID	technical replicate	viability, normalised (%)	outcome
MED21	SID405526996	1	76.6	active
MED21	SID405526996	2	71.2	active
MED21	SID405526996	3	106	inactive
CHD6	SID405528105	1	63.7	active
CHD6	SID405528105	2	89.5	inactive
CHD6	SID405528105	3	82	inactive
RASSF7	SID405526420	1	82.8	inactive
RASSF7	SID405526420	2	77.3	active
RASSF7	SID405526420	3	84.2	inactive
MAD1L1	SID405528300	1	78	active
MAD1L1	SID405528300	2	74.2	active
MAD1L1	SID405528300	3	79	active
SETD4	SID405527283	1	66.8	active
SETD4	SID405527283	2	75.2	active
SETD4	SID405527283	3	80.9	inactive
PAPSS2	SID405527888	1	100	inactive
PAPSS2	SID405527888	2	84.3	inactive
PAPSS2	SID405527888	3	86.3	inactive
PARP11	SID405527106	1	43.6	active
PARP11	SID405527106	2	65.4	active
PARP11	SID405527106	3	70.2	active
TGFB2	SID405526557	1	62.7	active
TGFB2	SID405526557	1	83.9	inactive
TGFB2	SID405526557	2	67.9	active
TGFB2	SID405526557	2	94	inactive
TGFB2	SID405526557	3	68.3	active
TGFB2	SID405526557	3	87	inactive
MCL1	SID405526473	1	48.3	active
MCL1	SID405526473	2	42	active
MCL1	SID405526473	3	43.7	active
PIP5K1C	SID405527659	1	68.2	active
PIP5K1C	SID405527659	2	69.7	active
PIP5K1C	SID405527659	3	69.3	active
YEATS4	SID405526636	1	49.4	active
YEATS4	SID405526636	2	50.4	active
YEATS4	SID405526636	3	98.4	inactive
DRD1	SID405526734	1	51.6	active
DRD1	SID405526734	2	55.4	active
DRD1	SID405526734	3	73.1	active
